## Library screening results

From ChEMBL document CHEMBL3988442, “University of Dundee, Small-Polar-MMV Screening Library” (2021).

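Viability assay of Plasmodium falciparum sporozoites; the read-out is not stated. The concentration is filed as 10 mM, unlikely as a test dose, so the dose is not known. Higher reads as lower viability (inferred: compounds with an IC50 in retests scored well above the rest). Strong results were mostly tested again. About 34,000 compounds were tested under these conditions; 0.84% (about 280) showed 50% or more at least once.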

Values are the deposited “Percent Effect”, in %. The controls that fix the scale are not given in the record; negative values are as filed. This is an unselected part of the compounds tested. Two or more numbers in one place are separate tests of the same structure; such repeats can differ widely.

SMILES	Percent Effect
COCC(=O)N1CCC(c2cc3n(n2)[C@@H](C(F)(F)F)C[C@@H](C)N3)CC1	-5.899
CS(=O)(=O)NCCCNC(=O)NCc1ccccc1	4.307
O=C(C1SCCc2sccc21)N1CCC(O)CC1 (centres undefined)	-3.157
Cc1ccccc1NC(=O)c1cncc(C2CCNCC2)n1.Cl	-2.685
Fc1ccc(-c2cnc(CN3CCCC3Cn3cccn3)o2)cc1 (centres undefined)	1.234
[H][C@@]12CC[C@H](Oc3ccccc3)[C@]1([H])CN(C(=O)COCC)C2	10.27
CC(C)C(C(=O)N1CCN(Cc2ccncc2)CC1)n1cncn1 (centres undefined)	-0.8724
Cn1ccc(C(=O)NC2CCC23CCN(C(=O)N2CCCC2)CC3)c1 (centres undefined)	5.486
Cc1nc[nH]c1CN1CCn2nc(CN3CC[C@H](F)C3)cc2C1	4.236
c1cnn(CC2CCCN2Cc2nc(C3CC3)no2)c1 (centres undefined)	0.7807
CC(NC(=O)NCCNc1cccc(F)c1C#N)c1nccs1 (centres undefined)	-2.176
CS(=O)(=O)c1snnc1C1CCN(Cc2ccc3nccnc3c2)CC1	-0.1999
CC(=O)N1CCCC1c1nc(C)no1 (centres undefined)	6.695
Cc1ccc(N2CCC3(CCN(C(=O)c4ccccn4)CC3)CC2)nn1.O=C(O)C(F)(F)F.O=C(O)C(F)(F)F	-12.25
Cc1nc(CNCC(C)c2nc3ccccc3o2)cs1 (centres undefined)	-5.867
COCC1CN(c2ncc(F)cn2)Cc2cnn(C)c21.O=C(O)C(F)(F)F.O=C(O)C(F)(F)F (centres undefined)	-8.231
O=C(O)C(F)(F)F.O=C(O)C(F)(F)F.O=C(O)C(F)(F)F.O=C(O)C(F)(F)F.[H][C@@]12CN(Cc3cccnc3)C[C@]1([H])[C@@H](OC)CCN2Cc1cccc(C)n1	-7.764
O=C(Nc1cc(F)ccc1OCC1CCCO1)N1CCSCC1 (centres undefined)	2.966
CN(C)C(=O)C1CN(c2ncccn2)CCN1C (centres undefined)	4.408
CC(C(=O)N1CCCN(c2ncccc2C#N)CC1)n1cccn1 (centres undefined)	3.504
COc1ccc(C(=O)C2CCCN(CCCn3cccn3)C2)c(OC)c1 (centres undefined)	-0.3119
OC(CN1CCN(c2ncccn2)CC1)c1cccc(F)c1 (centres undefined)	-13.38
Cl.Cn1ncc2c1CCCC2NCc1cccc(F)c1 (centres undefined)	-6.761
O=C(O)C(F)(F)F.[H][C@@]12CN(CC)C[C@]1([H])[C@H](OC)CCN2S(=O)(=O)c1ccccc1	12.29
O=S1(=O)c2cnccc2OC(COc2ccccc2)CN1CC1CC1 (centres undefined)	-0.6699
CC(C)NC(=O)N1CCC(c2nccn2C(C)C)CC1	-1.842
Cc1nc(CNC(=O)c2cc(COc3ccccc3F)[nH]n2)n[nH]1	-0.6055
Cl.O=C(Nc1cccc(CNCc2csc(Br)c2)c1)C1CC1	21.76
CCc1nc(CN2CCCC(NCc3cc(C)no3)C2)no1 (centres undefined)	-3.237
O=C(COc1coc(CN2CCCCC2)cc1=O)Nc1ccccc1Cl	-5.263
COc1cccc(C(=O)Nc2cc(CC(C)C)nn2C)c1	-6.868
O=C(O)c1ccccc1CN1CCOC(CCc2ccncn2)C1 (centres undefined)	10.58
COc1ccc(CNCc2ccnc(N3CCOCC3)c2)c(OC)c1	3.68
O=C(Cn1nc2ccccc2n1)N1CCCn2cncc2C1	-6
O=C(O)C(F)(F)F.[H][C@@]12C[C@H](C(=O)N(C)C)CN(Cc3ccc4c(c3)OCO4)[C@]1([H])CCO2	15.32
Cc1nccn1C1CCCN(C(=O)c2cc3ccccc3[nH]2)C1 (centres undefined)	-2.22
O=C(O)C(F)(F)F.O=C(O)C(F)(F)F.[H][C@@]12COC[C@]1(COCC1CC1)CN(Cc1cccnc1OC)C2	-8.114
Cc1cnn(C2CCCN(C(=O)c3ccc4c(c3)CCC4)C2)c1 (centres undefined)	9.499
COC(=O)CNC(=O)CSCc1nc(O)c2cc(C(C)C)sc2n1	-40.03 and -19.61 and -24.34
CN(Cc1cccs1)C(=O)CN(C)C1CCc2ccccc21 (centres undefined)	-5.228
Cc1cccc(-c2nc(C)nn2CN2CCN(c3ncccn3)CC2)c1	-10.77
COCCn1cc(C(=O)Nc2nc3c(s2)CCC3)c2ccccc21	-27.93 and -9.744 and -13.18
Cc1ccc(NC2CCN(C(=O)C(C)n3cncn3)CC2)nn1 (centres undefined)	7.531
Cn1ccc(C(=O)N2CCOC3(COCCN(CC4CC4)C3)C2)n1.O=C(O)C(F)(F)F (centres undefined)	19.43
Cc1cccc(CNC2CCN(CCc3ccncc3)CC2)c1C	14.32
CCOc1ncccc1C(=O)N1CCCC1c1c(C)nn(C)c1Cl (centres undefined)	4.862
CCN1C(=O)C2(CCCCC2)NC1c1cc(C#N)n(C)c1C (centres undefined)	1.224
CC(C)CCN(CCC(C)C)Cc1nc2c(cnn2C)c(=O)[nH]1	1.53
c1cnnc(N2CCCC2CNc2ncnc3sccc23)c1 (centres undefined)	3.163
CC(C)n1c2ccccc2c2c1cc(C(=O)N(C)C)n2C(=O)N(C)C	1.54
CC(=O)c1cccc(NC(=O)CN2CCCCC2C(=O)N2CCCC2)c1 (centres undefined)	9.111
CN(C)CC(=O)N1CC2(CCN(S(=O)(=O)c3ccccc3)C2)C1	1.664
Cc1nc(NC(=O)CN2C(=O)c3ccccc3NC2C(C)C)sc1C (centres undefined)	-7.967
[H][C@]12CN(C(=O)C3CC3)CCN1C[C@@H](C(N)=O)[C@@H]2c1ccccc1	-26.43
O=C(Cn1c(=O)n(Cc2ccco2)c2ncccc21)Nc1ccccn1	2.251
CC(C)c1nc2c(n1C)CCN(Cc1nc(-c3ccsc3)no1)C2	73.25 and 58.56 and 70.51
O=C(CCCn1cccn1)N1C[C@@H](O)[C@H](Oc2cccc(F)c2)C1	8.521
CC(=O)Nc1nc(CN2CCCCC2Cn2cncn2)cs1 (centres undefined)	7.482
CC(C)CN1CCC2(C1)CN(c1ncccn1)C2.O=C(O)C(F)(F)F	5.19
COc1cccc(N2CCN(CC(O)c3ccc(C)cc3)CC2)c1 (centres undefined)	-5.299
CNC(=O)CC1CC2(CCN(Cc3nccs3)CC2)c2ccccc21.O=C(O)C(F)(F)F (centres undefined)	-9.696
N#Cc1ccc(S(=O)(=O)NC(=O)C2CC2)c(C(F)(F)F)c1	2.4
Cc1sc(Oc2ccccc2Cl)nc1C(=O)O	3.016
O=C(O)C(F)(F)F.[H][C@@]12CO[C@@H](CNS(C)(=O)=O)[C@]1([H])CCN(Cc1ccsc1)C2	2.018
FC(F)(F)c1cc(C2CCNCC2)nc(-c2ccsc2)n1	7.993
CC(=O)N1CCC(c2nnc3ccc(C(=O)NCCN(C)C)cn23)C1 (centres undefined)	6.559
COc1cccc(C(C(=O)O)N2CCSCC2)c1F (centres undefined)	2.682
CS(=O)(=O)c1ccc(-c2ccccc2C(=O)O)cc1	-3.313
O=C(Nc1ccccc1F)N(CCO)Cc1ccsc1	2.638
[H][C@@]12C[C@@H](O)CN1C[C@@H](Cc1ccccc1)N(Cc1ccccc1Cl)C2	-7.039
Cc1cc(=O)n2ncnc2n1CC(O)c1cc(F)ccc1F (centres undefined)	-6.201
CN(C)c1ccc(C(=O)Nc2ccn(Cc3ccccn3)n2)cn1	-17.21
CCn1c(CNCC2CCCN2c2cccnn2)nc2ccccc21 (centres undefined)	0.9191
CN1C[C@@H](C(=O)N(C)C)[C@@]2(CCc3ccccc3C(=O)N2)C1.Cl	-15.6
O=C1CCCc2nccc(-c3ccccc3)c21	-4.24
CO[C@H]1CN(c2ccccc2)S(=O)(=O)[C@@]12CCN(Cc1ccccc1)C2	-43.32
CC(C)(C)n1cc(C(=O)NCCN2CCOCC2)c2cccnc21	7.731
COC(=O)c1cccc(C(=O)N(CCC#N)CC(C)(C)C)c1	-13.06
[H][C@@]12CCN(S(=O)(=O)CC)C[C@]1(C(=O)NC)CCO2	-1.997
CC(=O)N(Cc1noc(C)n1)C1CCN(Cc2cccc(C#N)c2)C1 (centres undefined)	10.74
O=C(NCc1cnc2n1CCN(Cc1nccs1)C2)c1ccno1.O=C(O)C(F)(F)F	12.69
Cc1ccc(CN2CCc3[nH]nc(C(=O)N(C)C)c3C2)s1.O=C(O)C(F)(F)F.O=C(O)C(F)(F)F	-2.224
Nc1ncnc2c1ncn2[C@H]1CCN(Cc2ccsc2)CC[C@@H]1O	2.845
CC(=O)N1CCCC2(C1)CN(C(=O)Cc1ccccc1)CCO2 (centres undefined)	4.381

7 of the entries, repeated:

{"smiles": "Cn1ccc(C(=O)N2CCOC3(COCCN(CC4CC4)C3)C2)n1.O=C(O)C(F)(F)F", "stereo": "centres undefined", "Percent Effect": 19.43}
{"smiles": "Cc1nc(CNC(=O)c2cc(COc3ccccc3F)[nH]n2)n[nH]1", "Percent Effect": -0.6055}
{"smiles": "Cc1nc(NC(=O)CN2C(=O)c3ccccc3NC2C(C)C)sc1C", "stereo": "centres undefined", "Percent Effect": -7.967}
{"smiles": "CCN1C(=O)C2(CCCCC2)NC1c1cc(C#N)n(C)c1C", "stereo": "centres undefined", "Percent Effect": 1.224}
{"smiles": "O=C(Cn1c(=O)n(Cc2ccco2)c2ncccc21)Nc1ccccn1", "Percent Effect": 2.251}
{"smiles": "Cc1ccccc1NC(=O)c1cncc(C2CCNCC2)n1.Cl", "Percent Effect": -2.685}
{"smiles": "CC(=O)Nc1nc(CN2CCCCC2Cn2cncn2)cs1", "stereo": "centres undefined", "Percent Effect": 7.482}